Data published in doi:10.1101/2021.09.16.460650 (bioRxiv, 2021).
No constants are given. Whether binding was seen depends on the method and setting. Some results given as binding are weak or reduced against the parent protein; the word gives no strength.

Biological target: N-terminally arginylated calreticulin (human (endogenous in DLD-1)) (UniProt P27797)
Assay: non-reducing SDS-PAGE with western blot

binding: binds
B1: N-terminally arginylated calreticulin (natural protein, human (endogenous in DLD-1), UniProt P27797 18-417, looked up)
chain: REPAVYFKEQFLDGDGWTSRWIESKHKSDFGKFVLSSGKFYGDEEKDKGLQTSQDARFYALSASFEPFSNKGQTLVVQFTVKHEQNIDCGGGYVKLFPNSLDQTDMHGDSEYNIMFGPDICGPGTKKVHVIFNYKGKNVLINKDIRCKDDEFTHLYTLIVRPDNTYEVKIDNSQVESGSLEDDWDFLPPKKIKDPDASKPEDWDERAKIDDPTDSKPEDWDKPEHIPDPDAKKPEDWDEEMDGEWEPPVIQNPEYKGEWKPRQIDNPDYKGTWIHPEIDNPEYSPDPSIYAYDNFGVLGLDLWQVKSGTIFDNFLITNDEAYAEEFGNETWGVTKAAEKQMKDKQDEEQRLKEEEEDKKRKEEEEAEDKEDDEDKDEDEEDEEDKEEDEEEDVPGQAKDEL
modifications: arginyl group added at the mature (signal sequence removed) NH2-terminus, Glu-18
